Test results taken from paper PMC5457524, “An engineered high affinity Fbs1 carbohydrate binding protein for selective capture of N-glycans and N-glycopeptides” (Nature Communications, 2017).
Like-named read-outs stand apart in the source and are kept apart here. Results are given in words; binding and its absence hold for the method and conditions named. For part of these data: In cells and extracts the contact can be indirect. Some entries that bind do so weakly or less than the wild type. For part of these data: Sequences can lack the tags named with a protein. Values belong to the binder of their own block, whether it stands above or below them.

What was measured:
[1] = target: T1, SNAP-Fbs1 PPRYR variant (combination of PPR and YR) (human) (UniProt Q9UK22); test: pull-down; wt, GYR or PPRYR SNAP-Fbs1 on BG beads; mixture of denatured fetuin and RNase B; low salt (50 mM ammonium acetate pH 7.5 named for Fig. 4a); 4 °C, 1 h; SDS-PAGE; both purified
T1 sequence: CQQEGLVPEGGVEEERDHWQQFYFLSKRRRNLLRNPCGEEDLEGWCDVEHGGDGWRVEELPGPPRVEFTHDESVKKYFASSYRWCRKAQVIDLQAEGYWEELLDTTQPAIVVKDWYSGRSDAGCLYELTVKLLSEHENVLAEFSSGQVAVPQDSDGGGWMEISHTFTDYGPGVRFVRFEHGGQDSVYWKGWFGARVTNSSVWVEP

[2] = target: T2, SNAP-Fbs1 GYR variant (S155G, F173Y, E174R) (human) (UniProt Q9UK22); test: as above
T2 sequence: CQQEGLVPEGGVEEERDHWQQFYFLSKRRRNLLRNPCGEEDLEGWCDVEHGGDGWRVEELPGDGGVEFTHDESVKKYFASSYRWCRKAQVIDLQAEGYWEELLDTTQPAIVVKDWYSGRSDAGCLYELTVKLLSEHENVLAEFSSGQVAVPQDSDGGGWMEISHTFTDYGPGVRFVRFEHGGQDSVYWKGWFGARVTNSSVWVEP

[3] = target: T3, SNAP-Fbs1 fusion protein (wild-type human Fbs1 sugar-binding domain, residues 92-296) (human) (UniProt Q9UK22); test: as above
T3 sequence: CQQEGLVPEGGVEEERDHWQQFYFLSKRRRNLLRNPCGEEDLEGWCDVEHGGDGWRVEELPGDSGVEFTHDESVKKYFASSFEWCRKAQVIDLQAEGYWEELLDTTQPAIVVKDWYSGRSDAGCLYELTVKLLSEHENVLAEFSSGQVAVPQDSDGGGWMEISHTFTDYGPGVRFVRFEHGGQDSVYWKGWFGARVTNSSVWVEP

[4] = target: T3, SNAP-Fbs1 fusion protein (wild-type human Fbs1 sugar-binding domain, residues 92-296) (human); test: pull-down; SNAP-Fbs1 on BG beads; mixture of denatured fetuin and RNase B; high salt (2 M ammonium acetate pH 7.5 named for Fig. 4a); 4 °C, 1 h; SDS-PAGE; both purified
[5] = target: T1, SNAP-Fbs1 PPRYR variant (combination of PPR and YR) (human); test: pull-down; wt, GYR or PPRYR SNAP-Fbs1 on BG beads; mixture of denatured fetuin and RNase B; low salt (50 mM ammonium acetate pH 7.5 named for Fig. 4a); 4 °C, 1 h; SDS-PAGE; both purified; remark: listed apart in the source
[6] = target: T3, SNAP-Fbs1 fusion protein (wild-type human Fbs1 sugar-binding domain, residues 92-296) (human); test: as above; remark: listed apart in the source
[7] = target: T3, SNAP-Fbs1 fusion protein (wild-type human Fbs1 sugar-binding domain, residues 92-296) (human); test: pull-down; SNAP-Fbs1 on BG beads; RNase B or human IgG denatured by boiling in 0.5% SDS and 40 mM DTT, 1% NP-40 added, untreated or treated with PNGase F; 4 °C, 1 h; SDS-PAGE with Coomassie blue; both purified
[8] = target: T2, SNAP-Fbs1 GYR variant (S155G, F173Y, E174R) (human); test: pull-down; wt or GYR SNAP-Fbs1 on BG beads; TMR-labelled glycopeptides; 4 °C, 1 h; bound amount from the TMR fluorescence left in the supernatant, given as recovery percentage; low salt (50 mM NaCl or 50 mM ammonium acetate pH 7.5) or high salt (2 M NaCl); both purified
[9] = target: T3, SNAP-Fbs1 fusion protein (wild-type human Fbs1 sugar-binding domain, residues 92-296) (human); test: as above
RNase B [10] = target: RNase B (UniProt P61823); test: pull-down; fetuin (Affi-Gel 15) or RNase B (Affi-Gel 10) beads, denatured with 6 M guanidine-HCl; E. coli cell lysate with wt or mutant SNAP-Fbs1; 20 mM Tris.HCl pH 7.5, 1 mM EDTA, 50 mM NaCl (low salt) or 2 M NaCl (high salt), 30% Protein-Free Blocking buffer; 4 °C, 1 h; SDS-PAGE, ImageJ; only the target purified
fetuin [11] = target: T4, fetuin (UniProt P12763 19-359, sialylated complex N-linked glycans); test: as above
T4 construct: fetuin; Denatured by boiling in Rapid PNGase F buffer, or on Affi-Gel 15 beads with 6 M guanidine-HCl; also called sialylated fetuin; fetuin beads; source: bought: New England Biolabs; denatured before the assay
T4 sequence (looked up): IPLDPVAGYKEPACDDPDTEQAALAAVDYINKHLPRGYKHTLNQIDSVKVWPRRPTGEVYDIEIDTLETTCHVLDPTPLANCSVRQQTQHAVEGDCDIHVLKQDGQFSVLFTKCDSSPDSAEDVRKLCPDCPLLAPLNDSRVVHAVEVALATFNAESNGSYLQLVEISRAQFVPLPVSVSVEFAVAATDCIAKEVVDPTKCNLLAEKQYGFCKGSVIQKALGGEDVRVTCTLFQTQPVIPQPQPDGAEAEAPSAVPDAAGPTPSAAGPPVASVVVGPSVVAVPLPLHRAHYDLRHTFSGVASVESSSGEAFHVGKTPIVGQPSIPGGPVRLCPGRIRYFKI

RNase B [12] = target: RNase B (UniProt P61823); test: plasmid display capture; complexes of p50-wt Fbs1 and its encoding plasmid from gently lysed E. coli, incubated with immobilised RNase B or fetuin; captured plasmid as read-out; only the target purified
fetuin [13] = target: T4, fetuin; test: as above

- binding [1]: binds
- binding [2]: binds
- binding [3]: binds weakly
- binding [4]: binds
B1: fetuin (protein, UniProt P12763 19-359)
chain: IPLDPVAGYKEPACDDPDTEQAALAAVDYINKHLPRGYKHTLNQIDSVKVWPRRPTGEVYDIEIDTLETTCHVLDPTPLANCSVRQQTQHAVEGDCDIHVLKQDGQFSVLFTKCDSSPDSAEDVRKLCPDCPLLAPLNDSRVVHAVEVALATFNAESNGSYLQLVEISRAQFVPLPVSVSVEFAVAATDCIAKEVVDPTKCNLLAEKQYGFCKGSVIQKALGGEDVRVTCTLFQTQPVIPQPQPDGAEAEAPSAVPDAAGPTPSAAGPPVASVVVGPSVVAVPLPLHRAHYDLRHTFSGVASVESSSGEAFHVGKTPIVGQPSIPGGPVRLCPGRIRYFKI
modifications: sialylated complex N-linked glycans

- binding [5]: binds
- binding [6]: binds
- binding [4]: binds
- binding [7]: binds
B2: RNase B (natural protein, UniProt P61823 27-150, looked up)
chain: KETAAAKFERQHMDSSTSAASSSNYCNQMMKSRNLTKDRCKPVNTFVHESLADVQAVCSQKNVACKNGQTNCYQSYSTMSITDCRETGSSKYPNCAYKTTQANKHIIVACEGNPYVPVHFDASV
modifications: a single site modified by a variety of high-mannose N-glycans
notes: RNase B, the N-glycosylated form of pancreatic ribonuclease; Denatured by boiling (SDS/DTT or Rapid PNGase F buffer), or on Affi-Gel 10 beads with 6 M guanidine-HCl; source: bought: New England Biolabs; denatured before the assay

- binding [8]: binds
- binding [9]: binds
Binder: KVANKT (N-glycan of SGP without sialic acids; two TMR fluorophores on the lysines) [asialo-SGP-TMR]

- binding (RNase B [10]): binds
- binding (fetuin [11]): binds
B3: SNAP-Fbs1 fusion protein (wild-type human Fbs1 sugar-binding domain, residues 92-296) (domain or fragment, UniProt Q9UK22 92-296)
chain: CQQEGLVPEGGVEEERDHWQQFYFLSKRRRNLLRNPCGEEDLEGWCDVEHGGDGWRVEELPGDSGVEFTHDESVKKYFASSFEWCRKAQVIDLQAEGYWEELLDTTQPAIVVKDWYSGRSDAGCLYELTVKLLSEHENVLAEFSSGQVAVPQDSDGGGWMEISHTFTDYGPGVRFVRFEHGGQDSVYWKGWFGARVTNSSVWVEP

- binding (fetuin [11]): binds
B4: SNAP-Fbs1 PPR variant (designed binder, UniProt Q9UK22 92-296)
chain: CQQEGLVPEGGVEEERDHWQQFYFLSKRRRNLLRNPCGEEDLEGWCDVEHGGDGWRVEELPGPPRVEFTHDESVKKYFASSFEWCRKAQVIDLQAEGYWEELLDTTQPAIVVKDWYSGRSDAGCLYELTVKLLSEHENVLAEFSSGQVAVPQDSDGGGWMEISHTFTDYGPGVRFVRFEHGGQDSVYWKGWFGARVTNSSVWVEP

- binding (fetuin [11]): binds
B5: SNAP-Fbs1 YR variant (F173Y/E174R) (designed binder, UniProt Q9UK22 92-296)
chain: CQQEGLVPEGGVEEERDHWQQFYFLSKRRRNLLRNPCGEEDLEGWCDVEHGGDGWRVEELPGDSGVEFTHDESVKKYFASSYRWCRKAQVIDLQAEGYWEELLDTTQPAIVVKDWYSGRSDAGCLYELTVKLLSEHENVLAEFSSGQVAVPQDSDGGGWMEISHTFTDYGPGVRFVRFEHGGQDSVYWKGWFGARVTNSSVWVEP

- binding (fetuin [11]): binds
B6: SNAP-Fbs1 PPG variant (designed binder, UniProt Q9UK22 92-296)
chain: CQQEGLVPEGGVEEERDHWQQFYFLSKRRRNLLRNPCGEEDLEGWCDVEHGGDGWRVEELPGPPGVEFTHDESVKKYFASSFEWCRKAQVIDLQAEGYWEELLDTTQPAIVVKDWYSGRSDAGCLYELTVKLLSEHENVLAEFSSGQVAVPQDSDGGGWMEISHTFTDYGPGVRFVRFEHGGQDSVYWKGWFGARVTNSSVWVEP

- binding (fetuin [11]): binds
B7: SNAP-Fbs1 PPS variant (designed binder, UniProt Q9UK22 92-296)
chain: CQQEGLVPEGGVEEERDHWQQFYFLSKRRRNLLRNPCGEEDLEGWCDVEHGGDGWRVEELPGPPSVEFTHDESVKKYFASSFEWCRKAQVIDLQAEGYWEELLDTTQPAIVVKDWYSGRSDAGCLYELTVKLLSEHENVLAEFSSGQVAVPQDSDGGGWMEISHTFTDYGPGVRFVRFEHGGQDSVYWKGWFGARVTNSSVWVEP

- binding (RNase B [12]): binds
- binding (fetuin [13]): binds weakly
B8: p50-Fbs1 fusion protein (wild type) of the plasmid display (domain or fragment, UniProt Q9UK22 92-296)
chain: CQQEGLVPEGGVEEERDHWQQFYFLSKRRRNLLRNPCGEEDLEGWCDVEHGGDGWRVEELPGDSGVEFTHDESVKKYFASSFEWCRKAQVIDLQAEGYWEELLDTTQPAIVVKDWYSGRSDAGCLYELTVKLLSEHENVLAEFSSGQVAVPQDSDGGGWMEISHTFTDYGPGVRFVRFEHGGQDSVYWKGWFGARVTNSSVWVEP
